In the supplement of paper PMC12819154, “High-throughput peptide-centric local stability assay extends protein–ligand identification to membrane proteins, tissues and bacteria” (Nature Structural & Molecular Biology, 2025):
The other results are listed elsewhere or left out. Small differences around the control level are noise.

Sequences of proteins named here, by UniProt entry; tags and fusion partners are left off. A change or cut given only in a name is not applied to a line headed by its entry.
UniProt Q8K3A9: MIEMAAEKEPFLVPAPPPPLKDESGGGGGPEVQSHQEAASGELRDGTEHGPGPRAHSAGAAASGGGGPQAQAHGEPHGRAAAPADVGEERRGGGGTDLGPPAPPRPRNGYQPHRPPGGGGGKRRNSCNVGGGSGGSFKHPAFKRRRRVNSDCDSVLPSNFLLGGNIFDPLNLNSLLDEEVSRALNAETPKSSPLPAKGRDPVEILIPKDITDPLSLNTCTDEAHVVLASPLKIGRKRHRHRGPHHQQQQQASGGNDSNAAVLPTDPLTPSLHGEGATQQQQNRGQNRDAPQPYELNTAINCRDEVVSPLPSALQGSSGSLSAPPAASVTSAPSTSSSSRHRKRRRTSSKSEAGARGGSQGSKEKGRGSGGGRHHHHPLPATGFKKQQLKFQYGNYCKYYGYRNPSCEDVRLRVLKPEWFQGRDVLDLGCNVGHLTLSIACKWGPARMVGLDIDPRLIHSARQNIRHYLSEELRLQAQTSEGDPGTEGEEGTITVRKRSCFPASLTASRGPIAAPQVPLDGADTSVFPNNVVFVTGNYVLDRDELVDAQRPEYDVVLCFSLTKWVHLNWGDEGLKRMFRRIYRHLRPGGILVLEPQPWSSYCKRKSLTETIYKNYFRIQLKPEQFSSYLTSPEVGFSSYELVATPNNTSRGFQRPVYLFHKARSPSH
UniProt Q8K212, whole entry: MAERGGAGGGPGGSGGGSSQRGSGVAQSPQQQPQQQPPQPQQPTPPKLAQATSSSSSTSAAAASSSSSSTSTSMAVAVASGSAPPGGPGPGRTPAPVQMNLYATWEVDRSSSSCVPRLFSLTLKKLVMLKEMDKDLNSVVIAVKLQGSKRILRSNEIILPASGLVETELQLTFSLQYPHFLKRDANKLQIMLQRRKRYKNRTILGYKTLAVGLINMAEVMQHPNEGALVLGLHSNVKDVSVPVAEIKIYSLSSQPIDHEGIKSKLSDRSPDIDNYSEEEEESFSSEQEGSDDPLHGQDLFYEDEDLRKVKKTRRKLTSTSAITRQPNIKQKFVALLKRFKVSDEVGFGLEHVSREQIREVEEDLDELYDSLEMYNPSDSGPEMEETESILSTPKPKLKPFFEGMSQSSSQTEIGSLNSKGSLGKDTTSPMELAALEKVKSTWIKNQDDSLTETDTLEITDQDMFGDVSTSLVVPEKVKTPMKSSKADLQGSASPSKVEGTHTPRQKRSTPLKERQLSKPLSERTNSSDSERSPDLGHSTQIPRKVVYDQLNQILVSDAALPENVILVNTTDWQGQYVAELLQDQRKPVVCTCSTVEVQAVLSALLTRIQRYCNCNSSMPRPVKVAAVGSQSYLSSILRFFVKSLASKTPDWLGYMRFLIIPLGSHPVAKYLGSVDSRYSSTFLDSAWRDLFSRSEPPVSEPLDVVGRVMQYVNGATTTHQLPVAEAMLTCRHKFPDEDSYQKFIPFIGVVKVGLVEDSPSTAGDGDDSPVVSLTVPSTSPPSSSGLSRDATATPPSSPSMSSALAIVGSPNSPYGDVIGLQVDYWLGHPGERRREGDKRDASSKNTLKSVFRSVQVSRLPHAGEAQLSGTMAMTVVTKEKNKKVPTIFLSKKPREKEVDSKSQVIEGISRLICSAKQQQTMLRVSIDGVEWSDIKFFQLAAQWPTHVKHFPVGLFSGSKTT
UniProt Q8R238: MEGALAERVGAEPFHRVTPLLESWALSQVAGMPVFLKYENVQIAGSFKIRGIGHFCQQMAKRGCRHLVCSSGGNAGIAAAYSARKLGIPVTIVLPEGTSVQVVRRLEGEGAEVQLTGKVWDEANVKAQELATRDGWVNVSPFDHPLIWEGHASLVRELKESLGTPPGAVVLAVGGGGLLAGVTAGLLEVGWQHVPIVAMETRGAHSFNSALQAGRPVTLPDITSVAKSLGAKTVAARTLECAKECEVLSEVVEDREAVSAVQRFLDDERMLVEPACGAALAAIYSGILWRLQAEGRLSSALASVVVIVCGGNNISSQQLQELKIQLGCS
UniProt Q8K1E6: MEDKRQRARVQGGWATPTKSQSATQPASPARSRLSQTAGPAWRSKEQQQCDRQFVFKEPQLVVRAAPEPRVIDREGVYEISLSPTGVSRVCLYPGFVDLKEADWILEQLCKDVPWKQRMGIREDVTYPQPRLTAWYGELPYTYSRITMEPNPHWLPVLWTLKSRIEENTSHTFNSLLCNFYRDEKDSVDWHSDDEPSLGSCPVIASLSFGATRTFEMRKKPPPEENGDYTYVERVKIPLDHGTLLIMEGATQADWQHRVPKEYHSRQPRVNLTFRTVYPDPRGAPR
UniProt Q8R0C0: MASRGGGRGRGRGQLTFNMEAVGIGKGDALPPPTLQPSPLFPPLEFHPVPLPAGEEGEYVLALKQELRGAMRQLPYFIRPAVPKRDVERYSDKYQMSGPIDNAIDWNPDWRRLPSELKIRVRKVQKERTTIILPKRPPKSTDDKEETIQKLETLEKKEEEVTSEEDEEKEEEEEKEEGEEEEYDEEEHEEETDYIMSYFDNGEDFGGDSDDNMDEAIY
UniProt Q8K182, whole entry: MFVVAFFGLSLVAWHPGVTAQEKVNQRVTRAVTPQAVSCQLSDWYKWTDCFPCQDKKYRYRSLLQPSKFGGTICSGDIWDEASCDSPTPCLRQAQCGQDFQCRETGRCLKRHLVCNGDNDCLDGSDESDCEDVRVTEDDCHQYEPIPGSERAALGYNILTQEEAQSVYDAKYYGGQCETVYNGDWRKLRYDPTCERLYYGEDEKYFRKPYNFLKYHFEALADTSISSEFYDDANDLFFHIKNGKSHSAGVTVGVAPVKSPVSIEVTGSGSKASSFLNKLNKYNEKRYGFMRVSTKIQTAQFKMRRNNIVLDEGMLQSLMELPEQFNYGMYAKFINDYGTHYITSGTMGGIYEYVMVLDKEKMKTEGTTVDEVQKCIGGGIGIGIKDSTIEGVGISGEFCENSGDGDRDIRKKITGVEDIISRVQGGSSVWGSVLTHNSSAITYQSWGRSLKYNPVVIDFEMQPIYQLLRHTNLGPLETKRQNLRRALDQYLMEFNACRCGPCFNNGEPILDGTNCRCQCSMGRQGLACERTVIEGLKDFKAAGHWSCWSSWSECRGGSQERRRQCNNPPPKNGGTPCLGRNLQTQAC

The targets below were run with CN[C@@H]1C[C@H]2O[C@@](C)([C@@H]1OC)n1c3ccccc3c3c4c(c5c6ccccc6n2c5c31)C(=O)NC4 [staurosporine] (assay: log2 fold change of tryptic peptide abundance, ligand vs vehicle (limited proteolysis) (log2 ratio); higher = more trypsin-susceptible (destabilized)). Conditions: ligand concentration: 20 uM; sample: mouse liver crude lysate; replicate design: treated separately.

Target	log2 fold change
UniProt Q8K3A9 (peptide sequence: RGGGGTDLGPPAPPRPR, peptide start residue: 91)	-0.182
UniProt Q8K212 (peptide sequence: FLIIPLGSHPVAK, peptide start residue: 657)	0.315
UniProt Q8R238 (peptide sequence: LEGEGAEVQLTGK, peptide start residue: 106)	-0.582
UniProt Q8K1E6 (peptide sequence: KKPPPEENGDYTYVER, peptide start residue: 219)	0.322
UniProt Q8R0C0 (peptide sequence: STDDKEETIQKLETLEK, peptide start residue: 140)	-0.0878
UniProt Q8K182 (peptide sequence: VTEDDCHQYEPIPGSER, peptide start residue: 135)	-0.445
